For some assays here: The exact form of at least one protein or probe is not confirmed.
Legend:
[1] = target: HSA (human serum albumin) (human) (UniProt P02768); assay: QCM; details: 500 mg/L HSA vs 100 ug/L IgE; 5'-biotin; 8.1 mM Na2HPO4, 1.1 mM KH2PO4, 1 mM MgCl2, 2.7 mM KCl, 138 mM NaCl, pH 7.4, 37 C; BSA-blocked avidin-coated gold crystal; commercial protein; label: biotin (5'), immobilized on avidin; single-stranded DNA
lysozyme = assay: QCM; details: 500 mg/L lysozyme vs 100 ug/L IgE; 5'-biotin; 8.1 mM Na2HPO4, 1.1 mM KH2PO4, 1 mM MgCl2, 2.7 mM KCl, 138 mM NaCl, pH 7.4, 37 C; BSA-blocked avidin-coated gold crystal; commercial protein; label: biotin (5'), immobilized on avidin; single-stranded DNA

Q: Which results are given for “GGGGCACGTTTATCCGTCCCTCCTAGTGGCGTGCCCC [D17.4 anti-IgE aptamer]”?
A: binding signal (% of IgE response) [1]: < 5; binding signal (% of IgE response) (lysozyme): < 5
